# From PubChem BioAssay AID540276 (National Center for Advancing Translational Sciences (NCATS), 2011)
# About 5,400 (1.8%) of roughly 300,000 compounds were called active. The inconclusive results got no clear call from the source; some entries with a clear call stand among them for comparison. Calls follow the shape of the full dose curve; tested in HEK293 cells. Potencies of inconclusive entries are doubtful fits and often do not repeat.
# Experiment: qHTS for inhibitors of binding or entry into cells for Marburg Virus
# Conditions: Marburg virus pseudotyped entry inhibition, cell reporter; activity change, negative = inhibition: at 37.8 µM (top of the series) unless noted
# % is scaled to controls: 0 for no effect and ±100 for the full control effect; potency is read from the fitted curve at half-maximal effect.
Structure (SMILES),Potency,"activity change, negative = inhibition"
COc1ccccc1NC(=O)C(=O)N/N=C(\C)CC(=O)Nc1ccccc1C(F)(F)F,"inconclusive: 10 µM [inhibitor, partial curve, poor fit]",
Cc1ccccc1Nc1nc2ccccc2s1,"inconclusive: 0.562 µM [activator, single point]",
Cc1ccc(N(CC(=O)NCc2ccncc2)S(C)(=O)=O)cc1Cl,"inconclusive: 35.5 µM [activator, single point]",
CCCS(=O)(=O)N1CCC(C(=O)N2CCN(C(=O)OCC)CC2)CC1,,inactive: 11%
COc1ccc(C(=O)Nc2ccc(N3CCN(c4ccc(OC)cc4)CC3)c(C#N)c2)cc1,"inconclusive: 0.562 µM [activator, partial curve, poor fit]",
CCOc1cccc(C2c3[nH]c4ccccc4c3CCN2C(=O)Cc2cccc(OCC)c2OCC)c1 (stereo not drawn),"inconclusive: 15.8 µM [inhibitor, single point]",
Cc1ccc2sc(N(CCCN(C)C)C(=O)c3nc4ccccc4s3)nc2c1C,"inconclusive: 35.5 µM [inhibitor, single point]",
COc1ccc(-c2nc(CN3CCCCC3c3cccnc3)c(C)o2)c(F)c1 (stereo not drawn),"inconclusive: 35.5 µM [inhibitor, single point]",
O=C(O)COc1ccccc1/C=N/NC(=O)c1cc(-c2ccc(F)cc2)nc2ccccc12,,inactive: -24.4% [at 46.1 µM]
O=C(NCCn1cccn1)C1CCC(=O)N(CCc2ccccc2)C1 (stereo not drawn),"inconclusive: 20 µM [activator, partial curve, poor fit]",
Cc1cccc(NC(=O)CSc2c3c(nc4ccccc24)CCC3)n1,"inconclusive: 2.24 µM [inhibitor, full curve]",
O=C1CC(c2ccccc2)=NN1c1ccccc1,"inconclusive: 11.2 µM [inhibitor, partial curve, poor fit]",
CSC(=Nc1ccccc1)N=C(SCc1ccccc1)N(C)C,"inconclusive: 11.2 µM [inhibitor, partial curve, poor fit]",
O=C(CN1CCCCC1)Nc1ccc(S(=O)(=O)N2CCCCCC2)cc1,,inactive: -20.7%
COc1cc(OC)c(OC)cc1/C=N/Nc1ncnc2c1[nH]c1ccccc12,"inconclusive: 5.62 µM [inhibitor, full curve, poor fit]",
Cc1nc(NC(=O)/C=C/c2ccccc2)n[nH]1,"inconclusive: 2.59 µM [inhibitor, full curve, poor fit]",
CCOc1ccccc1NC(=O)NS(=O)(=O)c1ccc(C)cc1,"inconclusive: 16.4 µM [inhibitor, single point]",

# Shown with tabs: part of the list above
Structure (SMILES)	Potency	activity change, negative = inhibition
COc1ccc(-c2nc(CN3CCCCC3c3cccnc3)c(C)o2)c(F)c1 (stereo not drawn)	inconclusive: 35.5 µM [inhibitor, single point]	
CSC(=Nc1ccccc1)N=C(SCc1ccccc1)N(C)C	inconclusive: 11.2 µM [inhibitor, partial curve, poor fit]	
